Test results: paper PMC7819943, “Rice protein-binding microarrays: a tool to detect cis-acting elements near promoter regions in rice”
This is one part of the list.

Target: T1, OsSMF1 (Oryza sativa, UniProt Q6ZLB0 1-436)
T1 sequence: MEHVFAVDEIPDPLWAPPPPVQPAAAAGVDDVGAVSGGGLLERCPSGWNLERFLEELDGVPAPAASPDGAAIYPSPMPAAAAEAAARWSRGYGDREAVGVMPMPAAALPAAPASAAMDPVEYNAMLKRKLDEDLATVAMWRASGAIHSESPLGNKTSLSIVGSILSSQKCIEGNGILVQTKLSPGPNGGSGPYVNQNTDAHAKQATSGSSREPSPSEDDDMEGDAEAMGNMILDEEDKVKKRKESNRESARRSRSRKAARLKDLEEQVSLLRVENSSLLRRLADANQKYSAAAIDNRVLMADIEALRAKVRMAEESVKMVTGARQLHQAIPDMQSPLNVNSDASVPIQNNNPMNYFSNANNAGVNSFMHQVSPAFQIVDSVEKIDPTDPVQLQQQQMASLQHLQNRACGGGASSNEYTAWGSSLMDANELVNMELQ
Assay: protein-binding microarray (RPBM); PBS, 2% BSA, 51.3 ng/ul salmon testes DNA, 50 uM zinc acetate, 200 nM TF, 25 C, 1 h; high values mean tight binding
Settings: protein: recombinant; tags: N-terminal polyhistidine and DsRed monomer fusion (pET32a); chain copies: 2; label: CyDye5-dUTP incorporated in the synthesized complementary strand; 3' TTTTT single-stranded linker to array surface; dsDNA, one strand shown
Method in brief: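 Ni–NTA purification followed expression in E. coli BL21-CodonPlus of transcription factors fused N-terminally to a polyhistidine tag and DsRed. At 200 nM in PBS with 2% BSA, salmon testes DNA and 50 µM zinc acetate, the protein was incubated for 1 h at 25 °C with a custom Agilent array that had been primer-extended with Cy5-dUTP and blocked with 2% BSA. After washing, the array was read on an Axon 4000B scanner. The binding signal is per-feature fluorescence intensity in arbitrary units.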

| Sequence | binding signal |
| --- | --- |
| CTGCACTGTTGTCACCTACTACCCCAAGGGTGAGTTCAGCCGGAGTCACCTAGTGCAG | 22800 fluorescence intensity (a.u.) |
| GTCCACCACCCACCTCGTACGTGTTCTGTCCACACACGCGCGGAGTCACCTAGTGCAG | 4300 fluorescence intensity (a.u.) |
| GGGTATAGATGTAACTTTTGTCTTGAGTTAACACCATCACCGGAGTCACCTAGTGCAG | 14500 fluorescence intensity (a.u.) |
| AAGTAGTACTATATATATATATGTGTACAAACATTACTTCCGGAGTCACCTAGTGCAG | 3170 fluorescence intensity (a.u.) |
| GGCTTTACTTGTCATGTGCTCTTGTTAATATTCTCTGTTGCGGAGTCACCTAGTGCAG | 3680 fluorescence intensity (a.u.) |
| GTTTGGTTTATTTCCCGAACAAGGGAAACAACGGGGCGGGCGGAGTCACCTAGTGCAG | 3250 fluorescence intensity (a.u.) |
| GTAACTTGTCTATCTGTTTTGCTTTCTCAGCTAAATATCCCGGAGTCACCTAGTGCAG | 3300 fluorescence intensity (a.u.) |
| CGGTAGATTTTGAACTGACGAAGTCCAGAAAGCAAGCAAGCGGAGTCACCTAGTGCAG | 3970 fluorescence intensity (a.u.) |
| ATTAGGTGGACTCCTCGTCGGCGGCACGTAGTCTTCGTCCCGGAGTCACCTAGTGCAG | 4680 fluorescence intensity (a.u.) |
| TGCTGCCGCGATTTGAGCGAGTGAATGTGACACTGGCTGACGGAGTCACCTAGTGCAG | 4410 fluorescence intensity (a.u.) |
| GTATTGGAGCTCTACAGTTCGGTCTACTCCTCTCTGTTGCCGGAGTCACCTAGTGCAG | 27500 fluorescence intensity (a.u.) |
| AGGCATATGGCGGTGGCATACACAACACAAATGTTCCTGGCGGAGTCACCTAGTGCAG | 4000 fluorescence intensity (a.u.) |
| ATCATCTATTAGTACCATCTATTAATTACGTGTACAAATTCGGAGTCACCTAGTGCAG | 8340 fluorescence intensity (a.u.) |
| CCCTTCTCCACAACGCCAGCAGTCGCGGCCGTCTGCGCTTCGGAGTCACCTAGTGCAG | 3640 fluorescence intensity (a.u.) |
| TGTGTGCTGACAGTTCATTTTCCTTGTGTTGTGCTGTTGTCGGAGTCACCTAGTGCAG | 4970 fluorescence intensity (a.u.) |
| CTTTCCACTAGCGGCCCTCTAGAAATATTACATGGCAAGTCGGAGTCACCTAGTGCAG | 4150 fluorescence intensity (a.u.) |
| ATCCCTTGCCTTGGCCGGTGGCCGCTACCGCTACGCAGCTCGGAGTCACCTAGTGCAG | 3940 fluorescence intensity (a.u.) |
| ATCAGCAAGCTTAGAAGAAGTAAGGCGTCACACGCAAGCACGGAGTCACCTAGTGCAG | 6430 fluorescence intensity (a.u.) |
| ACGAATCGGAAATGGTCAGTAGACTATAAATATACGTGTCCGGAGTCACCTAGTGCAG | 3270 fluorescence intensity (a.u.) |
| AGCGCCAATGGGACTGGCGCTGACATTGTGCCACCGTGGCCGGAGTCACCTAGTGCAG | 6590 fluorescence intensity (a.u.) |
| CGTCAGTTGCGATTCGTTTGGACGCCGTCAGCAATGATTGCGGAGTCACCTAGTGCAG | 3260 fluorescence intensity (a.u.) |
| TCGTATTAGCCCTGACCTGTCATCCGCGACAGGCTGCCTGCGGAGTCACCTAGTGCAG | 4960 fluorescence intensity (a.u.) |
| GTCATTAAACGGAAACTAATCCGTTACATGACGTGGGCCCCGGAGTCACCTAGTGCAG | 14000 fluorescence intensity (a.u.) |

2 records drawn at random from those above:

| Sequence | binding signal |
| --- | --- |
| TGCTGCCGCGATTTGAGCGAGTGAATGTGACACTGGCTGACGGAGTCACCTAGTGCAG | 4410 fluorescence intensity (a.u.) |
| TCGTATTAGCCCTGACCTGTCATCCGCGACAGGCTGCCTGCGGAGTCACCTAGTGCAG | 4960 fluorescence intensity (a.u.) |
